{"source": "PubChem BioAssay AID1224826 – NIAID, 2016", "aim": "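Regulators of Tlr4 signalling leading to Tnf-alpha expression in macrophages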 (primary screen)", "cell system": "RAW264.7 G9 macrophages from mouse bearing reporters for p65 (GFP) and the Tnf promoter (mCherry)", "reagents": "siRNA pool against mouse genes, 100 nM", "timing": "16 h of LPS stimulation, after 2 days of siRNA transfection", "treatment": "bacterial lipopolysaccharide (Salmonella minnesota R595), 10 ng/ml", "measured": "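Nuclear mCherry signal of the Tnf promoter reporter measured by imaging after background removal, scaled to each plate median and turned into robust z-scores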", "scale": "Tnf reporter robust z-score: higher = stronger Tnf promoter reporter signal after LPS", "hit rule": "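Called active when robust z-score is at most -1.3, matching the median of the Tlr4 knock-down control, or over 3; control wells and wells with under 50 cells never active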", "meaning of the calls": "active = Tnf reporter clearly lowered or raised; inactive = no clear change in Tnf reporter", "note": "The deposit covers about 17,000 reagents; shown is an unselected part. Of all reagents, about 1,110 (6.6%) were called active. 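Active means lowered or raised reporter signal; replicate intensities are raw and not normalised per plate.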 Further read-outs or replicates are left out here."}
{"gene symbol":"Arhgef28","Tnf reporter robust z-score":0.27,"fewer than 50 cells in well":"enough cells in well","Call":"inactive"}
{"gene symbol":"Tprg1l","Tnf reporter robust z-score":1.65,"fewer than 50 cells in well":"enough cells in well","Call":"inactive"}
{"gene symbol":"Bcl2l1","Tnf reporter robust z-score":1.22,"fewer than 50 cells in well":"enough cells in well","Call":"inactive"}
{"gene symbol":"Slc23a3","Tnf reporter robust z-score":-0.44,"fewer than 50 cells in well":"enough cells in well","Call":"inactive"}
{"gene symbol":"D630003M21Rik","Tnf reporter robust z-score":-1.9,"fewer than 50 cells in well":"enough cells in well","Call":"active"}
{"gene symbol":"Gpr137c","Tnf reporter robust z-score":-1.09,"fewer than 50 cells in well":"enough cells in well","Call":"inactive"}
{"gene symbol":"AI987944","Tnf reporter robust z-score":0.48,"fewer than 50 cells in well":"enough cells in well","Call":"inactive"}
{"gene symbol":"Fat1","Tnf reporter robust z-score":0,"fewer than 50 cells in well":"enough cells in well","Call":"inactive"}
{"gene symbol":"Adnp","Tnf reporter robust z-score":-0.54,"fewer than 50 cells in well":"enough cells in well","Call":"inactive"}
{"gene symbol":"Chtop","Tnf reporter robust z-score":-0.77,"fewer than 50 cells in well":"enough cells in well","Call":"inactive"}
{"gene symbol":"Myl1","Tnf reporter robust z-score":-1.75,"fewer than 50 cells in well":"enough cells in well","Call":"active"}
{"gene symbol":"Or4a39","Tnf reporter robust z-score":-1.51,"fewer than 50 cells in well":"enough cells in well","Call":"active"}
